In PMC6345565:
No constants are given. Whether binding was seen depends on the method and setting.

Sequences of proteins named here, by UniProt entry; tags and fusion partners are left off. A change or cut given only in a name is not applied to a line headed by its entry.
UniProt Q9EP80: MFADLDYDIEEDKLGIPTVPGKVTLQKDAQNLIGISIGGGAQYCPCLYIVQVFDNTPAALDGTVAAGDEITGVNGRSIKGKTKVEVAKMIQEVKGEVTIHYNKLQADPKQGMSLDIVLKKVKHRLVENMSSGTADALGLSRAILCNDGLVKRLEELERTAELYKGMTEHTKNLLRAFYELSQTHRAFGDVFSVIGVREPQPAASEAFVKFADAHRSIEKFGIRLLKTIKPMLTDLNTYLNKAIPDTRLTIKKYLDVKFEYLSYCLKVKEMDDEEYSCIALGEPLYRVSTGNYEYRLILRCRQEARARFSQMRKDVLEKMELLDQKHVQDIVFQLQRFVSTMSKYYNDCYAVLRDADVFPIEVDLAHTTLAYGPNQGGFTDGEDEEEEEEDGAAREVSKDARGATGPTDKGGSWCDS

Molecular target: SNAP-PICK1 WT (PICK1 with an N-terminal SNAP-tag, fluorescently labelled) (rat (Rattus norvegicus)) (UniProt Q9EP80)
Test: condition: only without subunit exchange (0.01% TX-100); two-colour co-binding on supported cell membrane sheets without monomer exchange; PICK1 A87L/A87L and PICK1 WT/WT mixed under no-exchange conditions (0.01% TX-100); both purified

- binding: no binding
Substance: SNAP-PICK1 A87L (from UniProt Q9EP80 1-416)
